These are yes or no findings as the source states them, for the method shown. Some binding calls cover weakened binding; strength is not graded here.

Sequences of proteins named here, by UniProt entry; tags and fusion partners are left off. A change or cut given only in a name is not applied to a line headed by its entry.
UniProt P01137: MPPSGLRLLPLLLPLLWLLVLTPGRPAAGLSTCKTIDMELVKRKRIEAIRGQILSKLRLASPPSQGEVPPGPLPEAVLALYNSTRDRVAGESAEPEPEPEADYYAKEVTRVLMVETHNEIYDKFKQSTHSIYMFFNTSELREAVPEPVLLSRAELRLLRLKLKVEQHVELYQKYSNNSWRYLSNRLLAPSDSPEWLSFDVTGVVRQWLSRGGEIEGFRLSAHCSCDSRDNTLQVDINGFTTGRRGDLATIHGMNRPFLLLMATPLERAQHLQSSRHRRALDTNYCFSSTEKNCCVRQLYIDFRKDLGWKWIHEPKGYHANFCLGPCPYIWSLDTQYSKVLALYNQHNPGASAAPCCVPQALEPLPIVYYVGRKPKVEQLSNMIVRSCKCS
UniProt Q14392: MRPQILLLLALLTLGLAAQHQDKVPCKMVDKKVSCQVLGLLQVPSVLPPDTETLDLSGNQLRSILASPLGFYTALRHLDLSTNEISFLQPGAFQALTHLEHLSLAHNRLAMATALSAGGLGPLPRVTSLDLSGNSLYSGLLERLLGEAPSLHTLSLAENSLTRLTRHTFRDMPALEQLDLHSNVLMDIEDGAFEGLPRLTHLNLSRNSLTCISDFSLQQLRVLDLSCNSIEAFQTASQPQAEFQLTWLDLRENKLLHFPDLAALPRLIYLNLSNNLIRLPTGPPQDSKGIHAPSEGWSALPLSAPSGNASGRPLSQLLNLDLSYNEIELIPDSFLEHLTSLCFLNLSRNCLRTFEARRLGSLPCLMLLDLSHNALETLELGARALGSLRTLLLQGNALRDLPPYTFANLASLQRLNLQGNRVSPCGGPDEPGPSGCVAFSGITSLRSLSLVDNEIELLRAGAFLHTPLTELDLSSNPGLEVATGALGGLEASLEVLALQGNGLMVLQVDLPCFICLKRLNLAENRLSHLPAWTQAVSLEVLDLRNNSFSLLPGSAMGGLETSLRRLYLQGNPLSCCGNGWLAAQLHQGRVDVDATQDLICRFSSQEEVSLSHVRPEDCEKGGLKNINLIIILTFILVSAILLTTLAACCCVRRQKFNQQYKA

Assay [1] has as its target proTGF-β1 (Homo sapiens (Human)) (UniProt P01137). As to the kind of experiment: co-expression, Ni-NTA purification through the His tag, SDS-PAGE under reducing or non-reducing conditions.
Assay [2] concerns the target TGF-β1 LAP (Homo sapiens (Human)) (UniProt P01137). As to the kind of experiment: flow cytometry of stably co-transfected 300.19 cells stained with fluorescent antibodies directed to the expressed proteins.
The target of assay [3] is proTGF-β1 (Homo sapiens (Human)) (UniProt P01137). The assay is described as above.

Consider “His-tagged sGARP (from UniProt Q14392 20-627) (receptor)”, for which the binding entry in assay [1] is “binds”. Regarding “(membrane-bound) GARP (from UniProt Q14392 20-662) (receptor)”, the binding result in assay [2] and in assay [3] was “binds” throughout.

The values above are taken from patent US20260109757A1.
